This assay has as its target T1, OTUD1 (bait of the IP coupled with MS) (UniProt Q5VV17).
T1 sequence: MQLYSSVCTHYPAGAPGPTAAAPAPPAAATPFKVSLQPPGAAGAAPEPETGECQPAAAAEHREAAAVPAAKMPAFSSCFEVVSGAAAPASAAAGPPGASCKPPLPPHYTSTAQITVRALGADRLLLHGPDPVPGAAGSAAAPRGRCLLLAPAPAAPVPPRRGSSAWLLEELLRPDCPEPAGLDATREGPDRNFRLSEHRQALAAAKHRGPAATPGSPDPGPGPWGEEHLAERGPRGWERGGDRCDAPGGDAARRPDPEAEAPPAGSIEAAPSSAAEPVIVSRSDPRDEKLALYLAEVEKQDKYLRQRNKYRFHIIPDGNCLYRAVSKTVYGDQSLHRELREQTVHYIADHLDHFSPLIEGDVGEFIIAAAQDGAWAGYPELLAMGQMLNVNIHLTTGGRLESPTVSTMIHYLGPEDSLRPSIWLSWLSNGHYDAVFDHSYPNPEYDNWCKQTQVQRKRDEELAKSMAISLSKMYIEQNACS
Description: affinity purification with mass spectrometry; IP of OTUD1 from sonicated cell lysate (IP lysis buffer), 3 ug antibody overnight at 4 °C, Protein A/G magnetic beads, SDS-PAGE, Coomassie staining, MS; cells and antibody not stated.

No constants are given. Whether binding was seen depends on the method and setting. Binding seen in cells or lysates may run through a third protein. A yes stands for co-enrichment or nearness to the bait. Other partners may have been found.

B1: SLC25A11 (found by MS in the OTUD1 immunoprecipitate) (protein, UniProt Q02978 1-314)
chain: MAATASAGAGGIDGKPRTSPKSVKFLFGGLAGMGATVFVQPLDLVKNRMQLSGEGAKTREYKTSFHALTSILKAEGLRGIYTGLSAGLLRQATYTTTRLGIYTVLFERLTGADGTPPGFLLKAVIGMTAGATGAFVGTPAEVALIRMTADGRLPADQRRGYKNVFNALIRITREEGVLTLWRGCIPTMARAVVVNAAQLASYSQSKQFLLDSGYFSDNILCHFCASMISGLVTTAASMPVDIAKTRIQNMRMIDGKPEYKNGLDVLFKVVRYEGFFSLWKGFTPYYARLGPHTVLTFIFLEQMNKAYKRLFLSG
Take B1: the binding result was “binds”.

For the origin of these results see PMC12264102.
